Measured values reported in PubChem BioAssay AID720504 (National Center for Advancing Translational Sciences (NCATS), 2013).
The whole screen tested about 360,000 compounds, of which about 10,000 (2.8%) were called active. The shares of active, inactive and inconclusive entries below differ from those in the screen. Calls follow the shape of the dose curve; as a rule, active = well fitted inhibition curve with a large enough effect; inconclusive = small, poorly fitted or top-dose-only effect; inactive = flat fitted curve, though single readings scatter. Potencies of inconclusive entries are doubtful fits and often do not repeat.

Amino acid sequences for entries named in this document (tags omitted).
UniProt P53350, whole entry, looked up: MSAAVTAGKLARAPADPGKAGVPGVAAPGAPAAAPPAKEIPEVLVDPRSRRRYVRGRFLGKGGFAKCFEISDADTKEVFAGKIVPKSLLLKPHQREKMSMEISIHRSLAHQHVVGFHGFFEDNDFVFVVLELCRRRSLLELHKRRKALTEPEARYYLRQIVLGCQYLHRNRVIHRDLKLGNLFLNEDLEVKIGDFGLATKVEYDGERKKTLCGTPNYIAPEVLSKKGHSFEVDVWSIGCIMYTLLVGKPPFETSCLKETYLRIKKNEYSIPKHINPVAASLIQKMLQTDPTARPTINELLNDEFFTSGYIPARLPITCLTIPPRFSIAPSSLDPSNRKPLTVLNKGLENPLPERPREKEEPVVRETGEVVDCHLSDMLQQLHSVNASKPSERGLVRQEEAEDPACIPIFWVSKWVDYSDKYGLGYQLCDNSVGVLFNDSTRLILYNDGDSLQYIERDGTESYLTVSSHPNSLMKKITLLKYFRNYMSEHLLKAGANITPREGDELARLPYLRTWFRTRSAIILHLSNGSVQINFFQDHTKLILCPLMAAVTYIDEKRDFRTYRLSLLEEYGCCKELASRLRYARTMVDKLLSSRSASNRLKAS

What follows are compounds tested against Serine/threonine-protein kinase PLK1 (Homo sapiens) (UniProt P53350) (assay: qHTS for Inhibitors of PLK1-PDB (polo-like kinase 1 - polo-box domain): Primary Screen). Settings: Plk1 PBD binding of FITC phosphopeptide, fluorescence polarization.
% is scaled to controls: 0 for no effect and ±100 for the full control effect; potency is read from the fitted curve at half-maximal effect.
Also: nearly all actives have a fitted effect of over 65% in size.
For max response, negative = inhibition in this document: series mostly up to about 57 µM.

SMILES | Potency | max response, negative = inhibition
COc1ccc(C(=O)Nc2ccc(O)c3ccccc23)cc1OC | inconclusive: 21.2 µM [inhibitor, single point] | 
CC1CCN(C(=O)CSc2nnc(CNC(=O)c3c(F)cccc3F)o2)CC1 |  | inactive: 1.85%
CCOC(=O)Nc1sc(C)nc1-c1ccccc1 |  | inactive: -2.22%
O=C(N/N=C/c1ccncc1)c1nc(-c2ccccc2)n2c1CCCCC2 |  | inactive: -4.35%
Cc1cc(C)n(S(=O)(=O)c2ccccc2[N+](=O)[O-])n1 |  | inactive: -7.41%
Cc1ccc(C)c(CC(=O)N2CCCCC2c2cc(C(=O)Nc3cccc(C#N)c3)no2)c1 (stereo not drawn) |  | inactive: -6.14%
CC(C)(C)n1nnnc1CN(Cc1cccnc1)Cc1ccccc1Cl |  | inconclusive: -31% [inhibitor]
CC1CC(C)CN(C(=O)COC(=O)Cc2ccc(Br)cc2)C1 (stereo not drawn) | active: 29.9 µM | 
Cn1c(CS/C(N)=N/N=C/c2ccccc2)c(Br)c(=O)n1-c1ccccc1 | active: 23.8 µM | 
CCOC(=O)c1cccnc1SC(CC)C(=O)NCc1ccco1 (stereo not drawn) | inconclusive: 31.6 µM [inhibitor, single point] | 
CCOC(=O)Cc1nnc(NC(=O)CSc2ccccc2)s1 | inconclusive: 21.2 µM [inhibitor, partial curve] | 
OCC1CSC(=S)N1Cc1ccccc1 (stereo not drawn) | inconclusive: 21.2 µM [inhibitor, partial curve] | 
CCOc1ccc(C(c2c(O)nc(SC)n(C)c2=O)c2c(O)nc(SC)n(C)c2=O)cc1 | active: 11.9 µM | 
CC(C)(C)NC(=O)COC(=O)c1ccc(Cl)cc1O |  | inactive: -1.97%
CCSc1n[nH]c2nc3c(c(=O)n12)C1(CCCCC1)Cc1ccccc1-3 | active: 13.4 µM | 
N#C/C(=C\C=C\c1ccccc1)C(=O)NCc1cccnc1 | active: 23.8 µM | 
O=C1NC2c3c(I)sc(I)c3C(=O)C2O1 (stereo not drawn) | inconclusive: 13.4 µM [inhibitor, partial curve] | 
O=C(NCCc1ccccc1F)c1ccc2c(c1)OCCO2 | inconclusive: 23.8 µM [inhibitor, single point] | 
CCn1c(Cn2nnc(-c3ccccc3)n2)nnc1SCC(=O)Nc1ccc(N(C)C)cc1 |  | inactive: -5.05%
O=C(C1=C(O)C(=O)N(c2ncccn2)C1c1ccc(Cl)cc1)c1ccco1 (stereo not drawn) |  | inactive: -7.85%
C=CCOc1ccc(/C=N/O)cc1Cl | inconclusive: 33.6 µM [inhibitor, single point] | 
CCCOc1nc2c(c(=O)n(C)c(=O)n2C)n1C | inconclusive: 29.9 µM [inhibitor, single point] | 
NC(=O)c1cc([N+](=O)[O-])ccc1NCc1ccc(N)cc1 |  | inactive: 3.43%

Complete entries, quoted from the list:
CC(C)(C)NC(=O)COC(=O)c1ccc(Cl)cc1O reads max response, negative = inhibition: inactive: -1.97%
O=C1NC2c3c(I)sc(I)c3C(=O)C2O1 (stereo not drawn) reads Potency: inconclusive: 13.4 µM [inhibitor, partial curve]
